Laboratory results from the supplement of paper PMC10849652.
The other results are listed elsewhere or left out.

Chains of the proteins cited; added tags and fusions are not shown. Lines headed by an entry give the natural chain unless they say otherwise; changes in a name come on top.
UniProt P23634: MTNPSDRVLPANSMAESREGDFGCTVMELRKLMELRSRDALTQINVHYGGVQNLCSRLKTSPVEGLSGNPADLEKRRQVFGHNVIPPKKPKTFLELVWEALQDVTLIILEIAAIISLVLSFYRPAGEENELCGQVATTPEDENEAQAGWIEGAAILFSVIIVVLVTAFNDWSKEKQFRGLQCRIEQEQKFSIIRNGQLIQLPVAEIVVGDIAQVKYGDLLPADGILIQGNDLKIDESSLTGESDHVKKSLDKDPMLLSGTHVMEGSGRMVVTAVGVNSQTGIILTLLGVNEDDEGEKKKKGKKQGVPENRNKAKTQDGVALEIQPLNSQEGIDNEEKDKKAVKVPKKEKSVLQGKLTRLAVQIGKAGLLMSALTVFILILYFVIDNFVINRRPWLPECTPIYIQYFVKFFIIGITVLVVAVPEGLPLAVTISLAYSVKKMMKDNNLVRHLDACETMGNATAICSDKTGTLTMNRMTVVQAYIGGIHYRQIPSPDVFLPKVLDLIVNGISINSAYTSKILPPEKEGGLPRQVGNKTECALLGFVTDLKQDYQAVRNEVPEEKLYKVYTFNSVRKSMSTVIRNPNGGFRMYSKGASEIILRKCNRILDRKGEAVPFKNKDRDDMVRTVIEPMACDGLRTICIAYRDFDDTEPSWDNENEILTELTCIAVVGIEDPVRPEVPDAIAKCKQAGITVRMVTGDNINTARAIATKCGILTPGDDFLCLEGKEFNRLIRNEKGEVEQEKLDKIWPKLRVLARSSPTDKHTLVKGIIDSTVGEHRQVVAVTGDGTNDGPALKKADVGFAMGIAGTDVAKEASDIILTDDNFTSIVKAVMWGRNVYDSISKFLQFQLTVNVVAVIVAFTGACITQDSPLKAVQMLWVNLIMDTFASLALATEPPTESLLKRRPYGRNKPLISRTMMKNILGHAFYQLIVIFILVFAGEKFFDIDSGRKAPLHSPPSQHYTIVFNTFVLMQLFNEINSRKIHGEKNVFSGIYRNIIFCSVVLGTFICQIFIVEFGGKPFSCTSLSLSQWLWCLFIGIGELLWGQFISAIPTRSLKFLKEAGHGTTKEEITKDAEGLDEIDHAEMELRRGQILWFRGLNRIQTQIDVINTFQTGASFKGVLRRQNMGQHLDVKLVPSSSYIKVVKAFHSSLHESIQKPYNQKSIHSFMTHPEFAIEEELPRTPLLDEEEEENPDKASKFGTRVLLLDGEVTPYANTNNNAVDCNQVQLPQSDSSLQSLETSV
UniProt P31939: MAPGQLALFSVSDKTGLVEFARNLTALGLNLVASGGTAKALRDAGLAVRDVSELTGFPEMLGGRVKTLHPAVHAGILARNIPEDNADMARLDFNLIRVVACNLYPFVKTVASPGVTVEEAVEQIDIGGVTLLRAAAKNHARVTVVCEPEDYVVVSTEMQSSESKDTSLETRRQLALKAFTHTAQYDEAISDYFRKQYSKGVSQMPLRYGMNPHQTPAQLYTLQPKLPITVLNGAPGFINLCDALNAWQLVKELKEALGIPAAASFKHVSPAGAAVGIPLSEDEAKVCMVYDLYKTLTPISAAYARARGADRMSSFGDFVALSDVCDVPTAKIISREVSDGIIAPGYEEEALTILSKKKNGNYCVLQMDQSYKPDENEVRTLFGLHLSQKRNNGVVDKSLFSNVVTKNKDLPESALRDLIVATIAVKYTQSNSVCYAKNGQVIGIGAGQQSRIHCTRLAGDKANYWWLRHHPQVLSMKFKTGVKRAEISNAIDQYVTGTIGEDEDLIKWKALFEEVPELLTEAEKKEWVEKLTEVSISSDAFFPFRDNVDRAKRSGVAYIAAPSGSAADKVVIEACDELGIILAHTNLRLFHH
UniProt O94817, whole entry, looked up: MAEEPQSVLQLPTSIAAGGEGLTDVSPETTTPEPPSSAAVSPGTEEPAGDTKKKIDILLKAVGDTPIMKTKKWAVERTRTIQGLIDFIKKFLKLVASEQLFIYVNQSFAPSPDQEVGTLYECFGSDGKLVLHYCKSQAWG
UniProt Q5T9A4: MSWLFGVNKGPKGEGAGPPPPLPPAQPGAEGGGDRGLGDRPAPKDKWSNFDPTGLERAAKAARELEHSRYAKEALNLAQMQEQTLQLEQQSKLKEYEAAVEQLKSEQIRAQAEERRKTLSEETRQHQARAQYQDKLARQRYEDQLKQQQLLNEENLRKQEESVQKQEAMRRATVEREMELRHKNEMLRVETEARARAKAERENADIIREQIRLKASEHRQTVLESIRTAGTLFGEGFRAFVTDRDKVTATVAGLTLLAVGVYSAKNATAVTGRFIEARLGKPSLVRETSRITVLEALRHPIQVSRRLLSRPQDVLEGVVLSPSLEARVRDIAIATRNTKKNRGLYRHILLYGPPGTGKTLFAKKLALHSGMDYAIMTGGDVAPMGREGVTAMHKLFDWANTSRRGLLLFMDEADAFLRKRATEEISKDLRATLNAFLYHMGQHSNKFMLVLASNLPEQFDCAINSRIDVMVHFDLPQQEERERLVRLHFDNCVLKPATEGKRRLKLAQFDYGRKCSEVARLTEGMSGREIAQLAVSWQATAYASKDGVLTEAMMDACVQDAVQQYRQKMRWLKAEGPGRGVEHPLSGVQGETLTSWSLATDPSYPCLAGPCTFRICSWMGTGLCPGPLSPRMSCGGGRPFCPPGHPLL
UniProt O15169, whole entry, looked up: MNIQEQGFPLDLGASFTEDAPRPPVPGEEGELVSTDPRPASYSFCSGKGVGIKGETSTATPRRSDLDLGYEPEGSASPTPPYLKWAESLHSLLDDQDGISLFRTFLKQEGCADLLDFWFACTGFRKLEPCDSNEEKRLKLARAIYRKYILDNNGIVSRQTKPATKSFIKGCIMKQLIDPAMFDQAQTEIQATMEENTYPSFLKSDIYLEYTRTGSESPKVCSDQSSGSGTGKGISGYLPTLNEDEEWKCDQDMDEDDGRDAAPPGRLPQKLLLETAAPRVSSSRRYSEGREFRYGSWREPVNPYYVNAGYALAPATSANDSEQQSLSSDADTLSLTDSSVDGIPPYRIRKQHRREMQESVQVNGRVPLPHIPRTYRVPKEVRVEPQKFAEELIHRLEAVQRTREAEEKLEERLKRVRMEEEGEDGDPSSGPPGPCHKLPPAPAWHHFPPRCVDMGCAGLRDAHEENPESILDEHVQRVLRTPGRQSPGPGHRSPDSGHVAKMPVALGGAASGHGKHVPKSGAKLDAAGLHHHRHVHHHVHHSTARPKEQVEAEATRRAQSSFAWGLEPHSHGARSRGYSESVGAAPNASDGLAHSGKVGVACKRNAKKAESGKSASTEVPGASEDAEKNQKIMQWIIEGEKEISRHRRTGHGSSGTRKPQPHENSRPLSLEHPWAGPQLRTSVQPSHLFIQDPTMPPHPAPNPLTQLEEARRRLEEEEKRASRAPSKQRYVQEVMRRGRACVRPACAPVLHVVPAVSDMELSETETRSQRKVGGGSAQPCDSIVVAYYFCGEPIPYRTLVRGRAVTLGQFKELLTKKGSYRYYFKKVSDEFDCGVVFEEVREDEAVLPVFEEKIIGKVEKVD
UniProt Q8NBF6: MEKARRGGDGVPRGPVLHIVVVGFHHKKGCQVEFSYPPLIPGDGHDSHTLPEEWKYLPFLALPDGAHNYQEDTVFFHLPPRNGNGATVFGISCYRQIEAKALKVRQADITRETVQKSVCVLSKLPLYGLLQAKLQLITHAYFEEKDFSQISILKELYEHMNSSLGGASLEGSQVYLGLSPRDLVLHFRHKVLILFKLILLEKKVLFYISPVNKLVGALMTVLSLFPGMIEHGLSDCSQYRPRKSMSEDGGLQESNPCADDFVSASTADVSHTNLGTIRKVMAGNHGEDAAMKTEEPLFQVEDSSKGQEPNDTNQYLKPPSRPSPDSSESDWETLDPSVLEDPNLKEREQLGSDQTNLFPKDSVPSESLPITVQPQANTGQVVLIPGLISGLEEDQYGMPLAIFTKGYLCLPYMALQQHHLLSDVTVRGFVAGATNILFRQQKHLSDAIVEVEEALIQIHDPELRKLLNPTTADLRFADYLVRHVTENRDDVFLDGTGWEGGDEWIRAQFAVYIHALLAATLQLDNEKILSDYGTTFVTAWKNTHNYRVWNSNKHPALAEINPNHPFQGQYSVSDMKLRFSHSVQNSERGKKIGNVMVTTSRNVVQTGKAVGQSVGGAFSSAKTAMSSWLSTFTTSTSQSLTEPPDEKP
UniProt P54252: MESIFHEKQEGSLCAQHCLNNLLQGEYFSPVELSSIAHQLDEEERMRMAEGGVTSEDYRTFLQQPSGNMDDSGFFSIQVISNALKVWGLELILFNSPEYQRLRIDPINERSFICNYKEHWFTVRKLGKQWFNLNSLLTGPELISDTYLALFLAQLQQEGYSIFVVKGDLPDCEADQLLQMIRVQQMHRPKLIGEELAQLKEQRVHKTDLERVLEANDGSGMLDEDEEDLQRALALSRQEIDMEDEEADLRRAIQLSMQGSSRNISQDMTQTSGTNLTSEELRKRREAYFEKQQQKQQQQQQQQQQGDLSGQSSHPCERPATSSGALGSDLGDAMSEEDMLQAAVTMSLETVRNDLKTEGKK
UniProt P35670: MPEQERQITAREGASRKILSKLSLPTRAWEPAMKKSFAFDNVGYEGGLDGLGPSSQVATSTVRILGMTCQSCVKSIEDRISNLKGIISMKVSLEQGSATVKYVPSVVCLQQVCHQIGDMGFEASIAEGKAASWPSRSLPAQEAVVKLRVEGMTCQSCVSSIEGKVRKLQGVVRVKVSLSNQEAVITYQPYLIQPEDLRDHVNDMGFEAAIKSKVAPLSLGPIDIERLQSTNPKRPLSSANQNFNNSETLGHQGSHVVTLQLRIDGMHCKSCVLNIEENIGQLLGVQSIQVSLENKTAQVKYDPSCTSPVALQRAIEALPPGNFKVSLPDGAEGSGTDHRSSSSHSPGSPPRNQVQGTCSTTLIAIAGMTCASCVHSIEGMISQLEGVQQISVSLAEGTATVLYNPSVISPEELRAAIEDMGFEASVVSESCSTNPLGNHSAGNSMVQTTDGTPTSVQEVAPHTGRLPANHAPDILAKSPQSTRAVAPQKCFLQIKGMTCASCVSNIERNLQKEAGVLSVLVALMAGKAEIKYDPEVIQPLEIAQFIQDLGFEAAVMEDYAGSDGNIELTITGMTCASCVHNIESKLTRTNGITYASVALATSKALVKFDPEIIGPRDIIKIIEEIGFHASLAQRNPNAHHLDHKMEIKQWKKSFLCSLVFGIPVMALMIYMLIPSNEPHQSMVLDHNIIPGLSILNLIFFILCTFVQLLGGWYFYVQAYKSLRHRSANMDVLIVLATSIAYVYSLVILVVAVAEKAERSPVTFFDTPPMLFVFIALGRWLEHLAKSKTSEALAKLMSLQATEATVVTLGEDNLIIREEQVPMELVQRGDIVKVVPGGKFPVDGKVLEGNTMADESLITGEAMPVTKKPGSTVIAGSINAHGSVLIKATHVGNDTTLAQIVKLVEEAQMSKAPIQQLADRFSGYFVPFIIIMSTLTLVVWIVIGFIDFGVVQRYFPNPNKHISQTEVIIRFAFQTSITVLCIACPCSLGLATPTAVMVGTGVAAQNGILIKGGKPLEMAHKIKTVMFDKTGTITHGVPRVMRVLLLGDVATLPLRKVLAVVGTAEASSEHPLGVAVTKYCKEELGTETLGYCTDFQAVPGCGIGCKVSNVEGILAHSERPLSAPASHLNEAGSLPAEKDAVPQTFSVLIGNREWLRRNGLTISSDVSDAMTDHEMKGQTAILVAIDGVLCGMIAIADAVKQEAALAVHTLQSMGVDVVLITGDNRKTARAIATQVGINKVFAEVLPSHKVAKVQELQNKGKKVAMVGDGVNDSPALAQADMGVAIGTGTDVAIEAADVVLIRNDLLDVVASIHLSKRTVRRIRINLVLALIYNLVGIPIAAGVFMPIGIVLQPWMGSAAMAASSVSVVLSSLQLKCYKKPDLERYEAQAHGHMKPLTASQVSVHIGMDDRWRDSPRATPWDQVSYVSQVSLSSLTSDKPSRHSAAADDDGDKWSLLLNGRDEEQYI
UniProt Q06055: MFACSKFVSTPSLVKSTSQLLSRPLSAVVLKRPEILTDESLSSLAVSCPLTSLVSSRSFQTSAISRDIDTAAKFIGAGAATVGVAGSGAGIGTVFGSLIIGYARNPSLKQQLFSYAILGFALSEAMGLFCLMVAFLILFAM
UniProt P17544: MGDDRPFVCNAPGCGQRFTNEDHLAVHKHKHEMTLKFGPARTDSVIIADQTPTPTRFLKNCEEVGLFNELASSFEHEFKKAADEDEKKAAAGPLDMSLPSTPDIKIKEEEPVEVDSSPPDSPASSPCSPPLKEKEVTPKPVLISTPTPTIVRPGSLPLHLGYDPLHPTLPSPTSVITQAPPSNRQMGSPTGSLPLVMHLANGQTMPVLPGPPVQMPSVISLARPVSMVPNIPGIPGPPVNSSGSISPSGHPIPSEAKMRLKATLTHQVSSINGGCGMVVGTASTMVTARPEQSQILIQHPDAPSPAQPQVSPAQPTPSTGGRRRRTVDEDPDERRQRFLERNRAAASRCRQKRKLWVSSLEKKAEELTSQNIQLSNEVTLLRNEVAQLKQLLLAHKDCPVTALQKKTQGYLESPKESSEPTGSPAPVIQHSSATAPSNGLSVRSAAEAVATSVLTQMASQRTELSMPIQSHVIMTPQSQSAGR

Experiments:
Test in all cases: log2 fold change, soluble protein after heating vs DMSO (PISA); higher = thermal stabilisation; K562 lysate, 10 uM; active = over 0.2 and 3.5 SD of the protein, either way, in both replicates (recomputed)
lapatinib = compound: CS(=O)(=O)CCNCc1ccc(-c2ccc3ncnc(Nc4ccc(OCc5cccc(F)c5)c(Cl)c4)c3c2)o1 [lapatinib]
How it was run: (§1)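 Soluble protein was defined as the supernatant remaining after 21,000xg for 90 min, following pooling of heated aliquots and adjustment to 0.5% NP-40 at 4°C. Before that, crude K562 extract at 1 mg/mL protein in PBS pH 7.4 with 1 mM MgCl2 was treated with 10 μM compound for 30 min and heated for 3 min across 48°C-58°C. Quantification used TMTpro 16plex LC-MS/MS with channel sums equalised, and values are log-two fold changes in thermal stability relative to solvent controls from duplicates.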

pictilisib = compound: CS(=O)(=O)N1CCN(Cc2cc3nc(-c4cccc5[nH]ncc45)nc(N4CCOCC4)c3s2)CC1 [pictilisib]
How it was run: as §1

crizotinib = compound: C[C@@H](Oc1cc(-c2cnn(C3CCNCC3)c2)cnc1N)c1c(Cl)ccc(F)c1Cl [crizotinib]
How it was run: as §1

[1] = compound: C[C@H](C1=CC=C(C=C1)C(=O)NC2=C3C=CNC3=NC=C2)N
How it was run: as §1

duvelisib = compound: C[C@H](Nc1ncnc2nc[nH]c12)c1cc2cccc(Cl)c2c(=O)n1-c1ccccc1 [duvelisib]
How it was run: as §1

gandotinib = compound: Cc1cc(Nc2cc(CN3CCOCC3)c3nc(C)c(Cc4ccc(Cl)cc4F)n3n2)n[nH]1 [gandotinib]
How it was run: as §1

tozasertib = compound: Cc1cc(Nc2cc(N3CCN(C)CC3)nc(Sc3ccc(NC(=O)C4CC4)cc3)n2)n[nH]1 [tozasertib]
How it was run: as §1

doramapimod = compound: Cc1ccc(-n2nc(C(C)(C)C)cc2NC(=O)Nc2ccc(OCCN3CCOCC3)c3ccccc23)cc1 [doramapimod]
How it was run: as §1

bafetinib = compound: Cc1ccc(NC(=O)c2ccc(CN3CC[C@H](N(C)C)C3)c(C(F)(F)F)c2)cc1Nc1nccc(-c2cncnc2)n1 [bafetinib]
How it was run: as §1

[2] = compound: Cc1cccc(CC(=O)N2CCc3c2ccc(-c2cn(C)c4ncnc(N)c24)c3F)n1
How it was run: as §1

nilotinib = compound: Cc1cn(-c2cc(NC(=O)c3ccc(C)c(Nc4nccc(-c5cccnc5)n4)c3)cc(C(F)(F)F)c2)cn1 [nilotinib]
How it was run: as §1

[3] = compound: Cc1nc(Nc2n[nH]c3c2CN(C(=O)N[C@H](CN(C)C)c2ccccc2)C3(C)C)c2sccc2n1
How it was run: as §1

dasatinib = compound: Cc1nc(Nc2ncc(C(=O)Nc3c(C)cccc3Cl)s2)cc(N2CCN(CCO)CC2)n1 [dasatinib]
How it was run: as §1

[4] = compound: Cc1ncc(-c2ccnc(Nc3ccc(S(C)(=O)=O)cc3)n2)n1C(C)C
How it was run: as §1

[5] = compound: Cn1cc(-c2ccc3c(c2)CCN3C(=O)Cc2cccc(C(F)(F)F)c2)c2c(N)ncnc21
How it was run: as §1

quisinostat = compound: Cn1cc(CNCC2CCN(c3ncc(C(=O)NO)cn3)CC2)c2ccccc21 [quisinostat]
How it was run: as §1

tipifarnib = compound: Cn1cncc1[C@@](N)(c1ccc(Cl)cc1)c1ccc2c(c1)c(-c1cccc(Cl)c1)cc(=O)n2C [tipifarnib]
How it was run: as §1

[6] = compound: NC(=O)Nc1cc(-c2cccc(F)c2)sc1C(=O)N[C@H]1CCCNC1
How it was run: as §1

[7] = compound: NC(=O)c1cnc(N[C@@H]2CCCC[C@@H]2N)nc1Nc1cccc(-n2nccn2)c1
How it was run: as §1

[8] = compound: NC1(c2ccc(-c3nc4ccn5c(=O)[nH]nc5c4cc3-c3ccccc3)cc2)CCC1
How it was run: as §1

Row | Target | log2 fold change (lapatinib) | log2 fold change (pictilisib) | log2 fold change (crizotinib) | log2 fold change [1] | log2 fold change (duvelisib) | log2 fold change (gandotinib) | log2 fold change (tozasertib) | log2 fold change (doramapimod) | log2 fold change (bafetinib) | log2 fold change [2] | log2 fold change (nilotinib) | log2 fold change [3] | log2 fold change (dasatinib) | log2 fold change [4] | log2 fold change [5] | log2 fold change (quisinostat) | log2 fold change (tipifarnib) | log2 fold change [6] | log2 fold change [7] | log2 fold change [8]
1 | ATP5ME (UniProt P56385) | inactive: 0.019 | inactive: 0.021 | inactive: 0.015 | inactive: -0.062 | inactive: 0.002 | inactive: 0.025 | inactive: 0.008 | inactive: -0.009 | inactive: -0.069 | inactive: 0.001 | inactive: 0.054 | inactive: 0.036 | inactive: -0.029 | inactive: 0.026 | inactive: -0.01 | inactive: -0.003 | inactive: -0.009 | inactive: 0.002 | inactive: -0.022 | inactive: -0.019
2 | ATP2B4 (UniProt P23634) | inactive: -0.022 | inactive: -0.018 | inactive: 0.018 | inactive: -0.166 | inactive: 0.053 | inactive: 0.082 | inactive: 0.046 | inactive: 0.049 | inactive: -0.125 | active: 0.221 | inactive: -0.05 | inactive: 0.098 | inactive: -0.031 | inactive: 0.003 | inactive: 0.021 | inactive: 0.164 | inactive: -0.028 | inactive: -0.019 | inactive: 0.019 | inactive: 0.008
3 | ATIC (UniProt P31939) | inactive: -0.006 | inactive: -0.023 | inactive: -0.032 | inactive: 0.03 | inactive: -0.022 | inactive: -0.021 | inactive: -0.033 | inactive: -0.011 | inactive: 0.01 | inactive: -0.016 | inactive: 0.005 | inactive: -0.002 | inactive: -0.011 | inactive: 0 | inactive: 0.001 | inactive: 0.008 | inactive: 0.022 | inactive: -0.001 | inactive: -0.003 | inactive: -0.006
4 | ATG12 (UniProt O94817) | inactive: -0.01 | inactive: -0.007 | inactive: -0.061 | inactive: -0.118 | inactive: -0.008 | inactive: 0.079 | inactive: 0 | inactive: -0.001 | inactive: -0.03 | inactive: 0.099 | inactive: 0.034 | inactive: -0.057 | inactive: -0.047 | inactive: -0.004 | inactive: 0.011 | inactive: -0.078 | inactive: -0.028 | inactive: 0.03 | inactive: -0.004 | inactive: 0.004
5 | ATAD3B (UniProt Q5T9A4) | inactive: 0.003 | inactive: -0.035 | inactive: -0.091 | active: 0.308 | inactive: 0.007 | inactive: -0.169 | inactive: 0.014 | inactive: 0.003 | inactive: -0.074 | inactive: -0.129 | inactive: -0.017 | inactive: 0.019 | inactive: 0.01 | inactive: -0.026 | inactive: 0.046 | inactive: 0.018 | inactive: -0.004 | inactive: 0.051 | inactive: -0.006 | inactive: 0.006
6 | ATM (UniProt Q13315) | inactive: -0.018 | inactive: -0.055 | inactive: -0.045 | inactive: -0.112 | inactive: -0.035 | inactive: 0.014 | inactive: -0.04 | inactive: 0.051 | inactive: -0.01 | inactive: 0.08 | inactive: -0.019 | inactive: -0.019 | inactive: -0.071 | inactive: 0.084 | inactive: 0.038 | inactive: 0.039 | inactive: 0.009 | inactive: 0.009 | inactive: 0.039 | inactive: 0.008
7 | ATP6V1G1 (UniProt O75348) | inactive: 0.025 | inactive: 0.008 | inactive: 0.017 | inactive: -0.007 | inactive: 0.052 | inactive: 0.013 | inactive: -0.026 | inactive: 0.032 | inactive: -0.001 | inactive: 0.016 | inactive: 0.051 | inactive: -0.058 | inactive: 0.008 | inactive: -0.037 | inactive: -0.02 | inactive: 0.012 | inactive: -0.02 | inactive: -0.006 | inactive: 0.038 | inactive: -0.004
8 | AXIN1 (UniProt O15169) | inactive: -0.072 | inactive: -0.045 | inactive: -0.139 | inactive: 0.032 | inactive: 0.209 | inactive: -0.016 | inactive: -0.083 | inactive: 0.006 | inactive: 0.045 | inactive: 0.078 | inactive: -0.042 | inactive: -0.1 | inactive: 0.078 | inactive: -0.02 | inactive: -0.15 | inactive: -0.249 | inactive: -0.058 | inactive: 0.072 | inactive: 0 | inactive: -0.252
9 | ATP13A2 (UniProt Q9NQ11) | inactive: -0.04 | inactive: -0.014 | inactive: 0.078 | inactive: -0.054 | inactive: 0.043 | inactive: -0.03 | inactive: -0.008 | inactive: 0.017 | inactive: -0.064 | inactive: 0 | inactive: -0.017 | inactive: -0.076 | inactive: -0.013 | inactive: 0.056 | inactive: 0.04 | inactive: -0.001 | inactive: 0.035 | inactive: -0.017 | inactive: 0.049 | inactive: -0.012
10 | AVL9 (UniProt Q8NBF6) | inactive: 0.009 | inactive: -0.023 | inactive: -0.026 | inactive: -0.097 | inactive: -0.056 | inactive: 0.12 | inactive: -0.018 | inactive: 0.062 | inactive: -0.012 | inactive: 0.08 | inactive: 0.01 | inactive: 0.006 | inactive: 0.015 | inactive: -0.016 | inactive: -0.037 | inactive: -0.088 | inactive: 0.01 | inactive: -0.002 | inactive: -0.012 | inactive: -0.002
11 | ATXN3 isoform 1 (UniProt P54252) | inactive: -0.009 | inactive: -0.047 | inactive: -0.005 | inactive: 0.038 | inactive: -0.003 | inactive: -0.03 | inactive: 0.081 | inactive: 0.033 | inactive: -0.006 | inactive: -0.031 | inactive: -0.006 | inactive: -0.015 | inactive: -0.022 | inactive: 0.009 | inactive: 0.006 | inactive: -0.039 | inactive: 0.064 | inactive: 0.007 | inactive: -0.019 | inactive: -0.041
12 | ATP7B (UniProt P35670) | inactive: 0.133 | inactive: -0.06 | inactive: -0.025 | inactive: -0.059 | inactive: -0.011 | inactive: 0.039 | inactive: -0.071 | inactive: 0.044 | inactive: -0.065 | inactive: 0.033 | inactive: 0.162 | inactive: -0.005 | inactive: 0.165 | inactive: -0.049 | inactive: -0.004 | inactive: -0.008 | inactive: 0.079 | inactive: 0.035 | inactive: -0.006 | inactive: -0.038
13 | ATP1A1 (UniProt P05023) | inactive: 0.012 | inactive: 0.013 | inactive: 0.015 | inactive: 0.048 | inactive: 0.002 | inactive: -0.008 | inactive: -0.026 | inactive: -0.024 | inactive: 0.003 | inactive: -0.046 | inactive: 0.003 | inactive: -0.007 | inactive: 0.031 | inactive: -0.001 | inactive: 0.009 | inactive: 0.035 | inactive: 0.001 | inactive: -0.025 | inactive: -0.004 | inactive: -0.009
14 | ATP5MC2 isoform 2 (UniProt Q06055) | inactive: 0.022 | inactive: 0.084 | inactive: 0.001 | inactive: -0.157 | inactive: 0.004 | inactive: 0.079 | inactive: 0 | inactive: 0.059 | inactive: -0.015 | inactive: 0.084 | inactive: -0.037 | inactive: 0.032 | inactive: 0.028 | inactive: 0.033 | inactive: -0.018 | inactive: -0.1 | inactive: -0.032 | inactive: 0.033 | inactive: -0.127 | inactive: -0.07
15 | ATG4C (UniProt Q96DT6) | inactive: 0 | inactive: -0.029 | inactive: 0.017 | inactive: 0.022 | inactive: 0.026 | inactive: 0.015 | inactive: 0.001 | inactive: 0.014 | inactive: 0.05 | inactive: 0.023 | inactive: -0.03 | inactive: 0.079 | inactive: 0.033 | inactive: -0.026 | inactive: 0.011 | inactive: 0 | inactive: -0.016 | inactive: 0.01 | inactive: 0.025 | inactive: -0.007
16 | ATF7 isoform 6 (UniProt P17544) | inactive: 0.04 | inactive: 0.124 | inactive: -0.14 | inactive: 0.113 | inactive: 0.051 | inactive: -0.05 | inactive: -0.049 | inactive: 0.104 | inactive: 0.187 | inactive: -0.122 | inactive: 0.083 | inactive: 0.091 | inactive: -0.045 | inactive: 0.041 | inactive: -0.034 | inactive: -0.333 | inactive: 0.154 | inactive: -0.026 | inactive: -0.056 | inactive: -0.043

No new results follow: entries from further up.
Row | Target | log2 fold change (lapatinib) | log2 fold change (pictilisib) | log2 fold change (crizotinib) | log2 fold change [1] | log2 fold change (duvelisib) | log2 fold change (gandotinib) | log2 fold change (tozasertib) | log2 fold change (doramapimod) | log2 fold change (bafetinib) | log2 fold change [2] | log2 fold change (nilotinib) | log2 fold change [3] | log2 fold change (dasatinib) | log2 fold change [4] | log2 fold change [5] | log2 fold change (quisinostat) | log2 fold change (tipifarnib) | log2 fold change [6] | log2 fold change [7] | log2 fold change [8]
10 | AVL9 (UniProt Q8NBF6) | inactive: 0.009 | inactive: -0.023 | inactive: -0.026 | inactive: -0.097 | inactive: -0.056 | inactive: 0.12 | inactive: -0.018 | inactive: 0.062 | inactive: -0.012 | inactive: 0.08 | inactive: 0.01 | inactive: 0.006 | inactive: 0.015 | inactive: -0.016 | inactive: -0.037 | inactive: -0.088 | inactive: 0.01 | inactive: -0.002 | inactive: -0.012 | inactive: -0.002
11 | ATXN3 isoform 1 (UniProt P54252) | inactive: -0.009 | inactive: -0.047 | inactive: -0.005 | inactive: 0.038 | inactive: -0.003 | inactive: -0.03 | inactive: 0.081 | inactive: 0.033 | inactive: -0.006 | inactive: -0.031 | inactive: -0.006 | inactive: -0.015 | inactive: -0.022 | inactive: 0.009 | inactive: 0.006 | inactive: -0.039 | inactive: 0.064 | inactive: 0.007 | inactive: -0.019 | inactive: -0.041
